Structures can show the parent of a compound that is named as a salt. The list shows a part of the results. The calls rarely recur for the same compound in another form.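 Kinases were expressed as nanoluciferase fusions in K562 cells and luminescence was read every 4 h between 2 and 18 h as percent of control, DMSO set to 100% and a positive control to 0%. A time point counts as decreased when the signal drops significantly (2 sigma). The hit call is the authors' own, does not follow from the count of time points alone, and its rule is not shown.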
What follows are compounds tested against CHEK2 (UniProt O96017) (assay: number of time points (of 5) at which kinase-Nluc abundance scored as decreased, DMSO-normalised (count); higher = more persistent destabilization). Conditions: K562; 2-18 h.

Sequences of proteins named here, by UniProt entry; tags and fusion partners are left off.
UniProt O96017, whole entry: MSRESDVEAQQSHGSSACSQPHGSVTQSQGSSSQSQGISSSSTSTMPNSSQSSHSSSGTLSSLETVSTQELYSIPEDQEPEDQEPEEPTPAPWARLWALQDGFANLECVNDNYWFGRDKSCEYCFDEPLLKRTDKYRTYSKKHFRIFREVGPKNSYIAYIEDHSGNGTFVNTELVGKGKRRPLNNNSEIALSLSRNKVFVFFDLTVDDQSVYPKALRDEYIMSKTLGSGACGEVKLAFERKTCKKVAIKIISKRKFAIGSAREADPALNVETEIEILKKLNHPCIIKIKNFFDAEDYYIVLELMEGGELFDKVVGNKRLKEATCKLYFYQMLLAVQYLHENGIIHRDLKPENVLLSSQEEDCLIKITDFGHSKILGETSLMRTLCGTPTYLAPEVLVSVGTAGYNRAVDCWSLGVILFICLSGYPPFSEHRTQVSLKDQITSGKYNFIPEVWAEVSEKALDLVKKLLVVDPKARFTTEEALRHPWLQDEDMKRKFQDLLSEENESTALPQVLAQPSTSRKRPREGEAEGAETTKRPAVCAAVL

Structure (SMILES)	number of time points
O=C1NC(=O)C(c2cn(-c3ccccc3)nc2-c2ccc(F)cc2)N1 (configuration not stated) (10 µM)	0
O=[N+]([O-])c1ccc(Sc2cccc[n+]2[O-])c2nonc12 (2.5 µM)	0
COc1nc(-c2ccnc(NC(=O)C3CC3)c2)sc1C(N)=O [GSK-3β inhibitor 2] (10 µM)	0
CCN1/C(=C/C(C)=O)Sc2ccc(OC)cc21 (10 µM)	2
Nc1cccc(S(=O)(=O)N2CCCN(S(=O)(=O)c3ccc4c(c3)OCCO4)CC2)c1 (10 µM)	0
Nc1ncc(-c2ccc(C(=O)N3CCNCC3)cc2)nc1-c1ccc(C(F)(F)F)cc1 (10 µM)	0
CC[C@H](Nc1ncnc2[nH]cnc12)c1oc2ccccc2c(=O)c1-c1cccc(F)c1 [Tenalisib] (10 µM)	0
CC(C)(O)[C@@H]1CC[C@](C)([C@H]2[C@@H](O)C[C@@]3(C)[C@@H]4C[C@H](O[C@@H]5O[C@H](CO)[C@@H](O)[C@H](O)[C@H]5O)[C@H]5C(C)(C)[C@@H](O[C@@H]6OC[C@@H](O)[C@H](O)[C@H]6O[C@@H]6O[C@H](CO)[C@@H](O)[C@H](O)[C@H]6O)CC[C@@]56C[C@@]46CC[C@]23C)O1 [Astragaloside VI] (10 µM)	0
CC(=O)Nc1nc2ccc(-c3cnc(C)c(NC(=O)OC4CCCCC4)c3)cc2s1 (10 µM)	0
COc1ccccc1/C=C1\C(=O)Nc2ccccc21 (10 µM)	0
CC1(N)CCN(c2cnc3c(-c4cccc(Cl)c4Cl)[nH]nc3n2)CC1 (2.5 µM)	0
CC(C)C[C@H](NC(=O)[C@H](CCCCN)NC(=O)[C@H](CO)NC(=O)[C@@H](N)CC(C)C)C(N)=O [LSKL, Inhibitor of Thrombospondin (TSP-1) (TFA)] (10 µM)	0
CN1CC[C@H](c2c(O)cc(O)c3c(=O)cc(-c4ccc(C(F)(F)F)cc4Cl)oc23)[C@H]1CO [(2S,3R)-Voruciclib (hydrochloride)] (2.5 µM)	0
C[C@H]1[C@H](OC(=O)CCC(=O)O)O[C@@H]2O[C@@]3(C)CC[C@H]4[C@H](C)CC[C@@H]1[C@@]24OO3 [Artesunate] (2.5 µM)	1
c1ccc(-c2nn3c(c2-c2ccnc4cc(OCCN5CCOCC5)ccc24)CCC3)nc1 (10 µM)	0
COc1cc(N2CCC(N(C)C)CC2)ccc1Nc1ncc(Cl)c(Nc2ccccc2P(C)(C)=O)n1 (2.5 µM)	0

2 of the compounds above, with bars between the fields.
Structure (SMILES) | number of time points
O=C1NC(=O)C(c2cn(-c3ccccc3)nc2-c2ccc(F)cc2)N1 (configuration not stated) (10 µM) | 0
C[C@H]1[C@H](OC(=O)CCC(=O)O)O[C@@H]2O[C@@]3(C)CC[C@H]4[C@H](C)CC[C@@H]1[C@@]24OO3 [Artesunate] (2.5 µM) | 1

Following part.

Structure (SMILES)	number of time points
Cc1ccc(-c2ncn(-c3ccc(Nc4nccc(-c5cccc(N6CCOCC6)c5)n4)cc3)n2)cn1 (10 µM)	0
CC[C@@H]1[C@H](F)C(=O)N[C@@H]1COc1nccc2cc(C(N)=O)c(OC)cc12 (10 µM)	0
O=C1NC(=O)/C(=C/c2ccc(-c3ccc(F)cc3O)o2)S1 (10 µM)	0
Cc1cc(Nc2cc(CN3CCOCC3)c3nc(C)c(Cc4ccc(Cl)cc4F)n3n2)n[nH]1 [Gandotinib] (2.5 µM)	0
CN(C)C(=O)c1ccc(S(=O)(=O)c2ccc(NC(=O)[C@@](C)(O)C(F)(F)F)c(Cl)c2)cc1 (10 µM)	0
CCc1cccc(CC)c1NC(=O)c1nn(C)c2c1CCc1cnc(Nc3ccc(C(=O)NC4CCN(C)CC4)cc3OC(F)(F)F)nc1-2 (2 µM)	0
O=C(Nc1ccc(Cl)cc1)C1CCCN(C(=O)c2cccc(-c3ccco3)c2)C1 (configuration not stated) (2.5 µM)	0
CN(C)Cc1cccc(N=C(c2ccccc2)c2c(O)[nH]c3cc(C(=O)N(C)C)ccc23)c1 (10 µM)	0
OCCN(CCO)c1ccc(C(c2ccc(Cl)cc2)c2ccc(N(CCO)CCO)cc2)cc1 (10 µM)	2
CCOc1ccccc1C=C1C(=O)Nc2ccccc21 (10 µM)	0
COc1ncc(Nc2ncc([C@@H](C)N3CCN(S(C)(=O)=O)CC3)cc2-c2nc(C)nc(N)n2)cc1F (10 µM)	0
O=C(CO)N1CCC(c2n[nH]c(-c3ccc(Cl)cc3)c2-c2ccncn2)CC1 (10 µM)	0
Cn1ncc(Cl)c1-c1cc(C(=O)N[C@H](CN)Cc2ccc(F)c(F)c2)sc1Cl (10 µM)	0
O=c1ccc2ccc(O)c(O)c2o1 [Daphnetin] (10 µM)	0
O=C(Nc1ccc(Cl)c(Cl)c1)Nc1ccc2nnsc2c1 (10 µM)	0
O=C(O)c1cc(O)c2c(c1)[C@@H]([C@H]1c3cc(C(=O)O)cc(O)c3C(=O)c3c(O[C@@H]4O[C@H](CO)[C@@H](O)[C@H](O)[C@H]4O)cccc31)c1cccc(O[C@@H]3O[C@H](CO)[C@@H](O)[C@H](O)[C@H]3O)c1C2=O [Sennoside B] (2.5 µM)	0

Source: the supplement of paper PMC12823440, “Inhibitors supercharge kinase turnover through native proteolytic circuits” (Nature, 2025)
